## Primary screen of a compound library

From ChEMBL document CHEMBL3988442, “University of Dundee, Small-Polar-MMV Screening Library” (2021).

Mtb heat-shock: 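Assay on Mycobacterium tuberculosis, filed only as a heat shock assay from Cornell; the read-out is not stated. The concentration is filed as 10 mM, unlikely as a test dose, so the dose is not known. Direction is inferred from retests: higher values go with stronger inhibition. Of about 69,000 compounds tested this way, about 930 (1.4%) reached 50% or more in at least one test.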
Mtb growth Cornell: 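Whole-cell assay for inhibitors of Mycobacterium tuberculosis growth, labelled Cornell in the record; the read-out is not stated. The concentration is filed as 10 mM, unlikely as a test dose, so the dose is not known. Higher means stronger inhibition (inferred from two other growth screens of the library). Size under these conditions: about 53,000 compounds, about 900 of them at 50% or above in at least one test.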

The filed quantity is “Percent Effect” (%).
The controls that fix the scale are not given in the record; negative values are as filed.
This is an unselected part of the compounds tested.
A dash means the value is not listed here; it may have been measured.

SMILES,Mtb heat-shock,Mtb growth Cornell
CN(Cc1ccccc1F)C(=O)c1ccoc1,11.76,6.688
Cc1noc(C)c1-c1cccc(CC2CCN(C(=O)CN)C2)n1 (stereo unspecified),-6.014,8.111
Cc1cc(NC(=O)NCCc2ccc3c(c2)OCCO3)n(C)n1,-1.324,-38.85
CC(C)(C)c1ncc(C(=O)NC(C(N)=O)c2ccccc2)s1 (stereo unspecified),-32.92,-19.21
CCn1nc(C)c(CCn2ccnc2-c2cc3n(n2)CCNC3)c1C,-27.79,11.12
O=C(Cc1cccc(F)c1)N1CCCCC1c1ccn2ccnc2n1 (stereo unspecified),-19.24,-10.19
CC(C)CNC[C@H]1O[C@H](Cc2cc(-c3ccccn3)on2)CC[C@@H]1O,3.352,-9.488
CN(C)c1ccc(C(=O)Nc2cnn(Cc3ccccn3)c2)cc1,3.243,-6.795
CCNc1ncc(C(=O)N(C)CCc2nc3cc(Cl)ccc3[nH]2)cn1,15.69,18.38
COCCN(C)C(=O)c1nc2c(s1)CCCN2C(=O)C1CC1,-14.29,22.55
N#CC1(NC(=O)c2nccc3ccccc23)CCSCC1,-18.37,10.04
Cc1ccc(N2CCCC(NCc3cscn3)C2)nn1 (stereo unspecified),5.499,11.07
Cc1nc(N2CCOCC2)nc2c1CN(C(=O)Cc1ccccn1)CC2,-19.25,14.4
O=C(O)C(F)(F)F.c1cnc(NCc2nnn3c2CN(Cc2ccsc2)CCC3)nc1,-34.33,19.54
CCc1cnc(C)nc1NCCNc1nc(C)cc(=O)[nH]1,11.94,18.44
COc1ccc([C@@H]2CN(C(=O)CCc3cc(Cl)no3)C[C@H]2N(C)C)cc1,-29.16,-6.695
Cc1nnn2c1COCC(CNC(=O)c1ccc[nH]1)C2 (stereo unspecified),-0.7898,1.598
CS(=O)(=O)Cc1nc(CN2CCOc3ccccc3C2)cs1,1.559,4.66
COC(=O)c1cccn1C1CCN(C(=O)c2cn[nH]c2C)CC1,-3.717,13.08
Cc1cc(O)nc(C2CN(CCC(F)(F)F)CCO2)n1 (stereo unspecified),12.83,-16.2
CCS(=O)(=O)N1CCc2c(cccc2NCc2ncc[nH]2)C1,-0.7676,3.153
O=C(c1ccc[nH]1)N1CC2(CCN(c3ncccn3)C2)C1,5.812,2.282
Cc1ccc(N2CCCC3(COCCN(c4ncccn4)C3)C2)nn1.O=C(O)C(F)(F)F (stereo unspecified),-5.221,-20.3
O=C1NCCN1C1CCN(Cc2ccccn2)CC1,-9.072,-
[H][C@]12CC[C@]([H])(CN(C)C1)N(C(=O)c1ccc(Cl)c(C)c1)C2,-29.54,-22.58
COc1cc(C(=O)N2CC[C@@H](NC(=O)c3ccccn3)[C@H](O)C2)ccn1,-4.41,-20.87
Cc1cc(O)c(OCC(=O)/N=c2\[nH]c(C)cs2)cn1,-7.286,22.16
Cc1nccn1-c1cccc(N2CCC(OCC3CCCCO3)CC2)n1 (stereo unspecified),7.023,-
CC(C)CN1CCC(NC(=O)c2ccc(Cl)cc2Cl)CC1,2.291,21.14
Cn1cncc1CN1CCOC(Cc2ccccc2)C1 (stereo unspecified),-1.233,19.69
Cc1ccccc1CNC(=O)N1CCC(n2cncn2)CC1,-12.7,-28.18
O=C(c1ccc(N2CCOCC2)nc1)N1CCCC(n2cccn2)C1 (stereo unspecified),-30.09,-
O=C(NCCC1COc2ccccc2O1)c1ccc(-c2cn[nH]c2)nc1 (stereo unspecified),6.975,4.189
CN(C)S(=O)(=O)N1CCCC(c2cccc(Cc3ccccc3F)n2)C1 (stereo unspecified),-7.161,-
Cc1c(NC(=O)c2noc3c2CCCC3)cnn1C,-24.91,-39.12
COc1cc(C)c(C(C)NC(=O)Nc2nnc(C)s2)cc1OC (stereo unspecified),9.192,14.57
O=C(CCc1ccccc1Cl)NS(=O)(=O)c1ccc2c(c1)OCCO2,62.1,-
CC(C)c1ncc2c(n1)CN(Cc1cccc(C#N)c1)CC2,4.613,-
CN1CCCc2cc(CNC(=O)c3ccc(NC4CC4)nc3)ccc21,6.314,-
CCNc1cc2c(nn1)CCN(C(=O)Cc1ccc(C)s1)C2,-3.18,-5.474
COC(=O)c1ccc(Cl)c(NS(=O)(=O)c2cn(C)cn2)c1,6.794,-
Cc1noc(-c2ccc(N(C)Cc3nccs3)nc2)n1,-122.8,-
COc1cccc(-n2nnc(C(=O)N3CCN(C(C)=O)CC3)c2C)c1,-9.039,-
CCn1cnnc1CN(C)Cc1c[nH]nc1-c1ccc(F)cc1,-15.9,-
O=C(Nc1ccccc1)C1=NOC2(CCCN(C(=O)N3CCCC3)C2)C1 (stereo unspecified),-8.903,-
CN(CCc1nc2ccccc2c(=O)[nH]1)CCC(F)(F)F,40.42,95.2
COc1ccc(C(=O)N2CCC3(CC2)c2ccccc2[C@@H](N)[C@@H]3O)cc1,22.35,9.748
COc1ccc2c(c1)CCCN2C(=O)NCCc1cnn(C)c1,15.12,6.65
CCOc1ccccc1OC1CCN(C(=O)c2ccc(=O)[nH]n2)CC1,1.007,-
CC(=O)N1CCc2[nH]cnc2C12CCN(C(=O)CCn1cccn1)CC2,-11.8,-

The first 4 entries again:

SMILES,Mtb heat-shock,Mtb growth Cornell
CN(Cc1ccccc1F)C(=O)c1ccoc1,11.76,6.688
Cc1noc(C)c1-c1cccc(CC2CCN(C(=O)CN)C2)n1 (stereo unspecified),-6.014,8.111
Cc1cc(NC(=O)NCCc2ccc3c(c2)OCCO3)n(C)n1,-1.324,-38.85
CC(C)(C)c1ncc(C(=O)NC(C(N)=O)c2ccccc2)s1 (stereo unspecified),-32.92,-19.21